These are yes or no findings as the source states them, for the method shown. Binding seen in cells or lysates may run through a third protein. Some results given as binding are weak or reduced against the parent protein; the word gives no strength. For part of these data: Tags and fused reporters may be left off the sequences shown.

Our source for the binding values is publication PMC5704379.

Test [1] has as its target T1, Sertad1 (human (endogenous in 293, K562, HL60, KG1a, U937)) (UniProt Q9UHV2).
T1 sequence: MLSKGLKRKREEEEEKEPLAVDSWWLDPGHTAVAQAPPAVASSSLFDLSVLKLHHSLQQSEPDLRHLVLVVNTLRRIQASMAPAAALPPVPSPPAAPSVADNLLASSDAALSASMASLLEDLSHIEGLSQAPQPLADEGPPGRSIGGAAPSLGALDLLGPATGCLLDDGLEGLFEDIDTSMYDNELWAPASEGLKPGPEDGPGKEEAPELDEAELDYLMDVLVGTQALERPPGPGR
Put plainly: co-IP; endogenous proteins; 293, K562, HL60, KG1a and U937 cells lysed in RIPA lysis buffer; IP with anti-Sertad1 (and anti-iASPP), Western blot with anti-iASPP; rabbit IgG as negative control. A general note: In western blotting, separated proteins are transferred to a membrane and probed.

Test [2] addresses T2, full-length Sertad1 with myc tag (UniProt Q9UHV2).
T2 sequence: T1 sequence
Put plainly: co-IP; 293 cells cotransfected with myc-tagged full-length Sertad1 or single domains and pcDNA3.1-iASPP; lysates precipitated with anti-myc, blotted with anti-iASPP.

Test [3] concerns the target T3, Sertad1 Serta domain with myc tag (UniProt Q9UHV2).
T3 sequence: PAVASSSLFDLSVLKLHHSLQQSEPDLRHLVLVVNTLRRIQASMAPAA
Described as above.

B1: iASPP (protein, UniProt Q8WUF5 1-828)
chain: MDSEAFQSARDFLDMNFQSLAMKHMDLKQMELDTAAAKVDELTKQLESLWSDSPAPPGPQAGPPSRPPRYSSSSIPEPFGSRGSPRKAATDGADTPFGRSESAPTLHPYSPLSPKGRPSSPRTPLYLQPDAYGSLDRATSPRPRAFDGAGSSLGRAPSPRPGPGPLRQQGPPTPFDFLGRAGSPRGSPLAEGPQAFFPERGPSPRPPATAYDAPASAFGSSLLGSGGSAFAPPLRAQDDLTLRRRPPKAWNESDLDVAYEKKPSQTASYERLDVFARPASPSLQLLPWRESSLDGLGGTGKDNLTSATLPRNYKVSPLASDRRSDAGSYRRSLGSAGPSGTLPRSWQPVSRIPMPPSSPQPRGAPRQRPIPLSMIFKLQNAFWEHGASRAMLPGSPLFTRAPPPKLQPQPQPQPQPQSQPQPQLPPQPQTQPQTPTPAPQHPQQTWPPVNEGPPKPPTELEPEPEIEGLLTPVLEAGDVDEGPVARPLSPTRLQPALPPEAQSVPELEEVARVLAEIPRPLKRRGSMEQAPAVALPPTHKKQYQQIISRLFHRHGGPGPGGPEPELSPITEGSEARAGPPAPAPPAPIPPPAPSQSSPPEQPQSMEMRSVLRKAGSPRKARRARLNPLVLLLDAALTGELEVVQQAVKEMNDPSQPNEEGITALHNAICGANYSIVDFLITAGANVNSPDSHGWTPLHCAASCNDTVICMALVQHGAAIFATTLSDGATAFEKCDPYREGYADCATYLADVEQSMGLMNSGAVYALWDYSAEFGDELSFREGESVTVLRRDGPEETDWWWAALHGQEGYVPRNYFGLFPRVKPQRSKV
Regarding B1, the binding entry in test [1] is listed as “binds”.

B2: iASPP (pcDNA3.1-iASPP) (protein, UniProt Q8WUF5 1-828)
chain: B1 chain
On to B2, for which the results for the binding result in test [2] and in test [3] were “binds” and “no binding”, respectively.
